Measurements from the supplement of paper PMC12873370.
Where “and” joins values, the source holds several entries; their conditions need not be identical. Equal entries are not always repeated. The list shows a part of the results. Most values come without repeats; read them as rough.

system: MEPP (mouse ovarian epithelium Trp53/Pten KO); assay: cell viability relative to untreated (fraction); higher = less growth inhibition; settings: 5 µM; 3 days

Row | SMILES | cell viability
1 | NC(=O)CCC(N)C(=O)O (stereo not given) | 1.18
2 | COc1cc(O)ccc1/C=C/C(=O)c1ccc(O)cc1 | 1.29
3 | COc1cc(C2Oc3c(O)cc([C@H]4Oc5cc(O)cc(O)c5C(=O)[C@@H]4O)cc3C2CO)ccc1O (stereo not given in full) | 1.24
4 | CC[C@H]1OC(=O)C[C@@H](O)[C@H](C)[C@@H](O[C@@H]2O[C@H](C)[C@@H](O)[C@H](N(C)C)[C@H]2O)[C@@H](CCN2C[C@H](C)C[C@H](C)C2)C[C@@H](C)C(=O)/C=C/C(C)=C/[C@@H]1CO[C@@H]1O[C@H](C)[C@@H](O)[C@@H](OC)[C@H]1OC | 0.994
5 | COc1cc2c(cc1OC)[C@@H](Cc1ccc(Oc3cc(C[C@@H]4c5cc(OC)c(OC)cc5CCN4C)ccc3O)cc1)N(C)CC2 | 0.919
6 | C[C@@H](O)[C@H]1C(=O)N2C(C(=O)O)=C(S[C@@H]3CN[C@H](C(=O)N(C)C)C3)[C@H](C)[C@H]12 | 0.993
7 | OC[C@H]1O[C@@H](Oc2ccc(O)cc2)[C@H](O)[C@@H](O)[C@@H]1O | 1.19
8 | O=c1cc(-c2ccccc2)oc2cc(O)c(O)c(O)c12 | 1.27
9 | N[C@@H](COP(=O)(O)O)C(=O)O | 0.815
10 | Cc1cnc(C)cn1 | 1.12
11 | N=C(N)c1ccc(OCCCCCOc2ccc(C(=N)N)cc2)cc1 | 1.15
12 | O=C1C[C@@H](c2ccccc2)Oc2cc(O)cc(O)c21 | 1.02
13 | CC[C@H]1OC(=O)[C@@](C)(F)C(=O)[C@H](C)[C@@H](O[C@@H]2O[C@H](C)C[C@H](N(C)C)[C@H]2O)[C@](C)(OC)C[C@@H](C)C(=O)[C@H](C)[C@H]2N(CCCCn3cc(-c4cccc(N)c4)nn3)C(=O)O[C@]12C | 0.902
14 | O=c1cc[nH]c(=O)[nH]1 | 1.26
15 | COc1cc(/C=C/C(=O)N2CCC=CC2=O)cc(OC)c1OC | 1.05
16 | N[C@@H](CCO)C(=O)O | 0.941
17 | c1nc2c[nH]cnc-2n1 | 0.795
18 | CC(S)C(=O)NCC(=O)O (stereo not given) | 1.06
19 | CCc1ccc(CCOc2ccc(CC3SC(=O)NC3=O)cc2)nc1 (stereo not given) | 1.05
20 | CCCCCCCCCCCCN1CCCCCC1=O | 0.968
21 | OC[C@@H](O)[C@@H](O)[C@@H](O)CO | 0.825
22 | Cc1c(S(=O)(=O)O)oc2c1C(=O)C(=O)c1c-2ccc2c1CCCC2(C)C | 1
23 | CCN1CCN(c2cc3c(cc2F)c(=O)c(C(=O)O)cn3C2CC2)CC1 | 1.14
24 | COc1ccc(-c2oc3c(CC=C(C)C)c(O[C@@H]4O[C@H](CO)[C@@H](O)[C@H](O)[C@H]4O)cc(O)c3c(=O)c2O[C@@H]2O[C@@H](C)[C@H](O)[C@@H](O)[C@H]2O)cc1 | 1.05
25 | CC1(C)S[C@@H]2[C@H](NC(=O)[C@H](NC(=O)N3CCNC3=O)c3ccccc3)C(=O)N2[C@H]1C(=O)O | 1.13
26 | Nc1ncnc2c1ncn2[C@@H]1O[C@H](COP(=O)(O)OP(=O)(O)OP(=O)(O)O)[C@@H](O)[C@H]1O | 0.91 and 1.11
27 | CN1CCN2c3ccccc3Cc3ccccc3C2C1 (stereo not given) | 1.11
28 | O.O.O.O.O=C([O-])CC(O)(CC(=O)[O-])C(=O)[O-].[Li+].[Li+].[Li+] | 1.05
29 | C=C(C)[C@@H]1CC[C@]2(C=O)CC[C@]3(C)[C@H](CC[C@@H]4[C@@]5(C)CC[C@H](O)C(C)(C)[C@@H]5CC[C@]43C)[C@@H]12 | 1.05
30 | C[C@]12C=CC(=O)C=C1CC[C@@H]1[C@@H]2C(=O)C[C@@]2(C)[C@H]1CC[C@]2(O)C(=O)CO | 0.826

Compounds shown so far that contain fluorine:
Row | SMILES | cell viability
13 | CC[C@H]1OC(=O)[C@@](C)(F)C(=O)[C@H](C)[C@@H](O[C@@H]2O[C@H](C)C[C@H](N(C)C)[C@H]2O)[C@](C)(OC)C[C@@H](C)C(=O)[C@H](C)[C@H]2N(CCCCn3cc(-c4cccc(N)c4)nn3)C(=O)O[C@]12C | 0.902
23 | CCN1CCN(c2cc3c(cc2F)c(=O)c(C(=O)O)cn3C2CC2)CC1 | 1.14
